Laboratory results: publication PMC8564675
No constants are given. Whether binding was seen depends on the method and setting. Binding seen in cells or lysates may run through a third protein. Some binding calls cover weakened binding; strength is not graded here.

By UniProt entry, the sequences of proteins in these tests, tags left out. Where a name states a change or a piece, a line headed by the entry shows the natural chain unless it says otherwise.
UniProt Q15542: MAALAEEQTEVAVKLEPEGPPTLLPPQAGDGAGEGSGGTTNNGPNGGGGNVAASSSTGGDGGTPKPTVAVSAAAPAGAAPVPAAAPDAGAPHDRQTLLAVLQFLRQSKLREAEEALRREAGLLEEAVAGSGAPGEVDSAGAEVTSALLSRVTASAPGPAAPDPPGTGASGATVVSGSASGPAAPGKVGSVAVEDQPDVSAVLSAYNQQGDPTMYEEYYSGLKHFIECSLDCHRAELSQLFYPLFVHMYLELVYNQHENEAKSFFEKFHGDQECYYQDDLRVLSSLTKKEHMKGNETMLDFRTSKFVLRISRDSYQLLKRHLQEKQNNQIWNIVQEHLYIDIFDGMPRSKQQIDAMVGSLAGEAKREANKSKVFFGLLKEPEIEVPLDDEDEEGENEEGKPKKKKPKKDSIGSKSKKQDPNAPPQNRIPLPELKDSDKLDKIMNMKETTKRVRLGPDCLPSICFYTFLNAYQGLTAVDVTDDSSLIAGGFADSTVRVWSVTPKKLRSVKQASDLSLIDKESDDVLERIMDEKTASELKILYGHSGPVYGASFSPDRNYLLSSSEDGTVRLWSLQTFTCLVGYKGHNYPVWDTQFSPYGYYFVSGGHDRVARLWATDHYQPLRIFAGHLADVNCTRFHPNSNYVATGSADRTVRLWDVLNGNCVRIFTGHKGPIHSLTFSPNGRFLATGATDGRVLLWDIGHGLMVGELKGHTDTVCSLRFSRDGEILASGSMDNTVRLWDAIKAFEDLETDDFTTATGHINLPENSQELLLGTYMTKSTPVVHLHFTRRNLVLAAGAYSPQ

Assays:
Test in all cases: co-IP; 7TAF: anti-TAF10 IP from extracts of Sf9 cells coinfected with Baculoviruses for TAF5-TAF6-TAF9-TAF4-TAF12, TAF10 and WT TAF8, a TAF8 deletion or TAF8(Y156–179); extract at 100 mM KCl, overnight at 4 °C, washes with IP500 and IP100 buffer; western blot and silver stain
[1] = molecular target: T1, human TAF8Δ141–184 (human) (UniProt Q7Z7C8)
T1 sequence: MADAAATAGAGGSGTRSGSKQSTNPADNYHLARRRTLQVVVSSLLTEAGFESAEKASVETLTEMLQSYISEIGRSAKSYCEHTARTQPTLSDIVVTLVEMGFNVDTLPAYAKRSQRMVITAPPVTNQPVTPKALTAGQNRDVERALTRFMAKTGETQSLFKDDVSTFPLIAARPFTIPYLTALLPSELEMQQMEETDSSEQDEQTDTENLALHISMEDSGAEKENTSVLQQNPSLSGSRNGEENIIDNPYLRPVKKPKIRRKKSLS

[2] = molecular target: T2, human TAF8 with the N-terminal region (aa 1–23) deleted (human) (UniProt Q7Z7C8)
T2 sequence: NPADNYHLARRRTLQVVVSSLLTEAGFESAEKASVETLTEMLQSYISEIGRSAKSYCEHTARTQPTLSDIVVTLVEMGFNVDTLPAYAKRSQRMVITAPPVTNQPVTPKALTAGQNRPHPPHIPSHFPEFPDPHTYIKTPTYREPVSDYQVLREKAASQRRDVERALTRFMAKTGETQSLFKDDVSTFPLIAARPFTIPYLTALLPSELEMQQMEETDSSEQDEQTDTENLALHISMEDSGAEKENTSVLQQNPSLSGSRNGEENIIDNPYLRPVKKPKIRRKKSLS

[3] = molecular target: T3, human TAF8Δ185–224 (human) (UniProt Q7Z7C8)
T3 sequence: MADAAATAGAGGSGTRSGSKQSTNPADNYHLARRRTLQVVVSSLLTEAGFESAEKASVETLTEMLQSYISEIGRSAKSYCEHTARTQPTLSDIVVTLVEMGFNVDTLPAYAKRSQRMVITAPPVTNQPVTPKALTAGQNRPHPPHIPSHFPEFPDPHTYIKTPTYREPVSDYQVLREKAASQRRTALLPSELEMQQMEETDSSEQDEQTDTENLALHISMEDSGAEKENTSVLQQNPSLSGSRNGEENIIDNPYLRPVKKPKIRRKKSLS

[4] = molecular target: T4, human TAF8Δ272-Stop (human) (UniProt Q7Z7C8)
T4 sequence: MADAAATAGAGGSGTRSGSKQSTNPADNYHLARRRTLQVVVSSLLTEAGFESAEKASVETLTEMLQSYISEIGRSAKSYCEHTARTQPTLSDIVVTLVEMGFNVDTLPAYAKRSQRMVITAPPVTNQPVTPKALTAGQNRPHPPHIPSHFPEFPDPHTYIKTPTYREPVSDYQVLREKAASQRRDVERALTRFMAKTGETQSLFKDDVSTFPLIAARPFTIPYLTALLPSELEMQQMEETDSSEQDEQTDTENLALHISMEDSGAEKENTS

[5] = molecular target: T5, human TAF8Δ225–271 (human) (UniProt Q7Z7C8)
T5 sequence: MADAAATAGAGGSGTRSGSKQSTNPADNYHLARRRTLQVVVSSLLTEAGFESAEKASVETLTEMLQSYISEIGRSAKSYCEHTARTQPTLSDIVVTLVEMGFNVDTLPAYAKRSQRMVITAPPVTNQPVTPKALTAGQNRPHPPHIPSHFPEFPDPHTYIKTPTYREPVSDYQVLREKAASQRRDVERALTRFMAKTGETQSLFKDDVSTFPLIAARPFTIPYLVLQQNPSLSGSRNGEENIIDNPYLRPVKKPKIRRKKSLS

- binding [1]: binds
- binding [2]: binds
- binding [3]: binds
- binding [4]: binds
- binding [5]: binds
Substance: 5TAF core complex (TAF5-TAF6-TAF9-TAF4-TAF12), recombinant (from UniProt Q15542 1-800; P49848 1-677; Q16594 1-264; O00268 1-1085; Q16514 1-161)
